Data on one substance can be found in PMC4632185.

Chains of the proteins cited; added tags and fusions are not shown. Lines headed by an entry give the natural chain unless they say otherwise; changes in a name come on top.
UniProt Q8TDX7: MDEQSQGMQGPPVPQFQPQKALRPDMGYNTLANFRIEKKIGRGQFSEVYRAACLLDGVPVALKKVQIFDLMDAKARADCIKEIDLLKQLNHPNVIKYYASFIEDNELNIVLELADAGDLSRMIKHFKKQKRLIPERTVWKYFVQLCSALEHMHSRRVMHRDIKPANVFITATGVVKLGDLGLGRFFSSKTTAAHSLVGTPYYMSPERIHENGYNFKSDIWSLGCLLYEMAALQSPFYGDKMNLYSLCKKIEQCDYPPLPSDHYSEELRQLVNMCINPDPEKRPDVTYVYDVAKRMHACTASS

Results are given in words; binding and its absence hold for the method and conditions named. In cells and extracts the contact can be indirect. Binding calls can cover weak binding; strength is not graded here. Sequences can lack the tags named with a protein.

The target in this assay is T1, GST-Nek9-CTD (aa 726–979) (human) (UniProt Q8TD19).
T1 sequence: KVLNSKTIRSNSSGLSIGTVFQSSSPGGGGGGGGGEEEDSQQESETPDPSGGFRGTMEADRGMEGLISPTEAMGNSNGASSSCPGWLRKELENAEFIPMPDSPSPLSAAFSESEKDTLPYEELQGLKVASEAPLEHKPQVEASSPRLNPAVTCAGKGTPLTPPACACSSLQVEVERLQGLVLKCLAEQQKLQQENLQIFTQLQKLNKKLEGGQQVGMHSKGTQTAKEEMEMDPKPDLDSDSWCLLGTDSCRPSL
Briefly: pull-down; GST co-precipitation: 100 μg GST-Nek9 protein immobilised on glutathione sepharose-4B beads, incubated with 100 μg Nek7 in 500 μl for 1 h at 4 °C; 50 mM HEPES pH 7.5, 300 mM NaCl, 5% glycerol, 5 mM dithiothreitol, 0.05% Tween-20; Coomassie staining or immunoblot with α-His6; both ….

Turning to “Nek7 with a mutation of Arg155 (from UniProt Q8TDX7) (enzyme)”, the binding entry is recorded as “binds”.
